Binding data for 1 molecule are collected here from US20210009668A1 (ROCHE DIAGNOSTICS OPERATIONS, published 2021).

Results are given in words; binding and its absence hold for the method and conditions named. Some results given as binding are weak or reduced against the parent protein; the word gives no strength.

The target of this experiment is T1, recombinant human cardiac troponin T (human, UniProt P45379 2-298).
T1 construct: In the ECL assay the cTnT came from the Troponin T hs CalSet calibrator; also called cTnT; TnT
Nature of the experiment: SPR kinetics, compared with mutants 9, 17 and 19.

B1: anti-cTnT Fab mutant 12 (Y34I, F60W, Y104F) (Fab, V domains shown)
VH: EVQLQQSGPELVKPGASVKMSCKASGYTFTDYIMKWVKQSHGKSLEWIGDINPNNGETWYNQKFKDKATLTVDKSSSTAYMQLNSLTSEDSAVYYCATRVFDFWGQGTTLTVSS
VL: DIVLTQSPASLAVSLGQRATISCKASQSVDYDGTSYMNWFQQKAGQPPKRLIYAASNLESGIPARFSGRGSGTDFALNIHPVEEEDAATYYCQQSNEDPYTFGGGTKLEIK
notes: also called combination 12; combination "12"
As to B1, the binding entry is “binds”.
